Consider 2 molecules from publication PMC11341764, “Sae2 controls Mre11 endo- and exonuclease activities by different mechanisms” (Nature Communications, 2024).

No constants are given. Whether binding was seen depends on the method and setting. For some assays here: In cells and extracts the contact can be indirect. Some entries that bind do so weakly or less than the wild type. Where a sequence is shown, tags or fusion partners need not be part of it.

In assay [1] the target is T1, Rad50 (wild-type, untagged) (budding yeast (endogenous in yeast cells)) (UniProt P12753).
T1 sequence: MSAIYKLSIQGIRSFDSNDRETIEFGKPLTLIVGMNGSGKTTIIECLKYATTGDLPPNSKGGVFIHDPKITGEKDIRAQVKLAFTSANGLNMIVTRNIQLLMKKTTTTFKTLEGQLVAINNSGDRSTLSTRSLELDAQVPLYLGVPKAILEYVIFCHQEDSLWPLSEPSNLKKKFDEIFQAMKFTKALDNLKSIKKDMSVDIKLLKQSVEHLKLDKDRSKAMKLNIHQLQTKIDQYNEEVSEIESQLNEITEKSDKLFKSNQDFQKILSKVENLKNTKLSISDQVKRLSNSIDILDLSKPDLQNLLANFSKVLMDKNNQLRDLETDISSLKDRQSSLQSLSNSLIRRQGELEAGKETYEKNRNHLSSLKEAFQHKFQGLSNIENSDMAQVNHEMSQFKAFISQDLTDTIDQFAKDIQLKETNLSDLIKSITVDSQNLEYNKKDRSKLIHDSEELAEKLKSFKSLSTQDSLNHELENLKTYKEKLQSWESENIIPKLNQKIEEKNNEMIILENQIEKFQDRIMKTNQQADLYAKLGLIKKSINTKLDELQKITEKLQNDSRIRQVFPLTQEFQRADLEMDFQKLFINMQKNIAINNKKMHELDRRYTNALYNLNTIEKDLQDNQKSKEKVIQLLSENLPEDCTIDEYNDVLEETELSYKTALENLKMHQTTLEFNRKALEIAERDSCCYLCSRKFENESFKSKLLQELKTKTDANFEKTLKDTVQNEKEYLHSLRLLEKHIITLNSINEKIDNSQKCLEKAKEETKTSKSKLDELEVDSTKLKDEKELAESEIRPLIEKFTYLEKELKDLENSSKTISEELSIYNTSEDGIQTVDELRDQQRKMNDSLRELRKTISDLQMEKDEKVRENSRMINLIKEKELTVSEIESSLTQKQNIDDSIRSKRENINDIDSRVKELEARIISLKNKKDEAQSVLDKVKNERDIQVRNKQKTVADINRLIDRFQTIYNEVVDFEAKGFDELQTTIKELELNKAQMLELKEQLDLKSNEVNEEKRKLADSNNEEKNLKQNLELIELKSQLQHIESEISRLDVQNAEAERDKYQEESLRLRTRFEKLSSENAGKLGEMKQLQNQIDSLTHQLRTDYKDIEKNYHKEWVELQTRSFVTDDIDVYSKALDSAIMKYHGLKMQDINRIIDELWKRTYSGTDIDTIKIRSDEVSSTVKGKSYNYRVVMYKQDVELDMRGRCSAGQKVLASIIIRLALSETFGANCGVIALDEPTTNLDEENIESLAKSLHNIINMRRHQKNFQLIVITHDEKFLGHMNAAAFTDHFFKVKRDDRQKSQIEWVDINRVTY
Briefly: co-IP; extracts of yeast cells carrying HA-tagged MRE11 and untagged Rad50 variants; immunoprecipitation with anti-Rad50 antibodies, immunoblotting with anti-HA or anti-Rad50.

A further assay concerns the target T2, His-tagged Mre11 (yeast) (UniProt P32829).
T2 sequence: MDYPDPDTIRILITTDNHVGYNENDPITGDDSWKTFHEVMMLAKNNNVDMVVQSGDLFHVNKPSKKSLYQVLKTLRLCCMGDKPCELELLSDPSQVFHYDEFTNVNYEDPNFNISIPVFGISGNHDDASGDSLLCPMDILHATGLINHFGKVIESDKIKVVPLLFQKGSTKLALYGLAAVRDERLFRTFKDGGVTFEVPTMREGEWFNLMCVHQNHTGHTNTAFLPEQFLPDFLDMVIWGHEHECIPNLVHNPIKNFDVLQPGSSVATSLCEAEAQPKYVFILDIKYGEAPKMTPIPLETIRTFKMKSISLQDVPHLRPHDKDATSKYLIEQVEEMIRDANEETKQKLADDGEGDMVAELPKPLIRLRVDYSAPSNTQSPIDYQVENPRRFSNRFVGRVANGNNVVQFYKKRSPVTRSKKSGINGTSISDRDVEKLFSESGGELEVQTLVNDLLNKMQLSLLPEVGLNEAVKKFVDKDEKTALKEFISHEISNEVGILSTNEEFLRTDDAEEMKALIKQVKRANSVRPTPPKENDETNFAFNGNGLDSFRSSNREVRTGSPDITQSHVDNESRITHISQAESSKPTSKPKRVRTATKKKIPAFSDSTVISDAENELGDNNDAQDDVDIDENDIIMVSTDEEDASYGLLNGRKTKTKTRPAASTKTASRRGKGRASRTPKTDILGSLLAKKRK
The experiment in a line: co-purification by two affinity steps; His-tagged Mre11 and FLAG-tagged Xrs2 expressed in Sf9 cells; NiNTA and anti-FLAG affinity chromatography; Coomassie gel.

B1: HA-tagged Mre11 (protein, UniProt P32829 1-692)
chain: T2 sequence
As to B1, in assay [1], the binding entry is on record as “binds”.

B2: FLAG-tagged Xrs2 (protein, UniProt P33301 1-854)
chain: MWVVRYQNTLEDGSISFISCCLQAFKTYSIGRSSKNPLIIKNDKSISRQHITFKWEINNSSDLKHSSLCLVNKGKLTSLNKKFMKVGETFTINASDVLKSTIIELGTTPIRIEFEWINEVWNIPPHLTQFRTMLSEYGISTEISINDIPANLMISDYPKSEDNSIRELYALVSTIPMKKSRFLMELCNTLLPTSKTNLKFDEMWNDMISNPEYNVFDFDPNILLSKFMRLNNIRVLTTIKSEPRLSSLLRTFNINLFAFDNIDSLYKYVDSLEASTEYLILTTTDKKENGKILCTIKTMLTSIIDGTLSAVINMKGASSRTLDNGKFDQISEGMSTILKTSRAPEVEASPVVSKKRKLNRRRVLPLDSLDFFAGGLSTKTLSENRSLTDAKRLNCGAESKTVISSPNIAEADEKHAPFLQNALKPTEDIGKKSGHSSPGAIIVSSPNLGTVNTSEDSLDKSLQSHKLPQPSLPEVAGIGSQTISSNSADYETAAVNSMDDAEVTKNFRVNHHQNIEQPSKNIRKLSNYSREISSPLQENCKSPVKELSIKEKSGTPHAFVEAIQETKNREVKRVKSTIVELKDEELSEEAINQLKNLAIVEPSNNLLRKSFDSEGNKTSRTTEKWENSLMEPEWHKRKNFKTFVKVRPKSKAHKEEGKNNTQSSDFIRNAAFLITRNYVPLKKYSKKDTTTKWGTEENEDMFALTEMERFGSNTFMSDNINSNTIQKRSQALNRFTNEDSSNEGEEDSFSFSRCSGTAASVQPLKNKIFITDEDDLGDIDDKSDRLNHRENNRNLFVVKEMNLRPNLSEECSKQSRHSRSATSRSRGSFGASNNGDGDDDDDDGPKFTFKRRKG
In the case of B2, the binding entry with His-tagged Mre11 (yeast) is “binds”.
